Results deposited as PubChem BioAssay AID1159584 (Peter MacCallum Cancer Centre, 2016).
In all, the deposit lists about 18,000 reagents; below is a random part of them. The record does not give: the amount of reagent, the time to read-out.

- Test: 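Knock-downs that harm CDH1-null cells more than parental MCF10A cells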 (primary screen)
- Cells: human MCF10A breast epithelial cells, parental and CDH1-null
- Knock-down reagent: siRNA against human genes
- Detection: 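ATP luminescence (CellTiter-Glo) viability per line relative to mean mock wells over all plates, and the ratio of CDH1-null to parental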
- Direction: CDH1-null / parental viability ratio: higher = CDH1-null cells survive relatively better than parental; CDH1-null viability vs mock: higher = more viable CDH1-null cells; parental viability vs mock: higher = more viable parental cells

The first 5 records, to show the layout:
| Target gene | CDH1-null / parental viability ratio | CDH1-null viability vs mock (fraction of mock) | parental viability vs mock (fraction of mock) |
| --- | --- | --- | --- |
| PHKA1 | 0.94 | 0.98 | 1.04 |
| STXBP4 | 0.97 | 1.01 | 1.04 |
| TMEM222 | 1 | 0.78 | 0.78 |
| OR2V2 | 1.03 | 0.7 | 0.68 |
| RNPEPL1 | 1.24 | 0.42 | 0.34 |

Results, from the start:
| Target gene | CDH1-null / parental viability ratio | CDH1-null viability vs mock (fraction of mock) | parental viability vs mock (fraction of mock) |
| --- | --- | --- | --- |
| PHKA1 | 0.94 | 0.98 | 1.04 |
| STXBP4 | 0.97 | 1.01 | 1.04 |
| TMEM222 | 1 | 0.78 | 0.78 |
| OR2V2 | 1.03 | 0.7 | 0.68 |
| RNPEPL1 | 1.24 | 0.42 | 0.34 |
| SFR1 | 1.08 | 0.93 | 0.86 |
| PHF3 | 0.91 | 0.78 | 0.86 |
| EPHX4 | 0.76 | 0.71 | 0.94 |
| BRMS1L | 0.82 | 0.5 | 0.61 |
| BRD9 | 1.01 | 0.93 | 0.92 |
| AMMECR1L | 1.28 | 0.83 | 0.65 |
| TRPV1 | 1.22 | 0.9 | 0.74 |
| TMC8 | 1.52 | 0.76 | 0.5 |
| OR10A3 | 1.01 | 0.85 | 0.84 |
| HSPD1 | 0.94 | 0.94 | 1 |
| NTF4 | 0.99 | 0.77 | 0.78 |
| HCK | 1 | 0.94 | 0.94 |
| HJV | 1.09 | 1 | 0.92 |
| PRKAR2A | 1.11 | 0.92 | 0.83 |
| PES1 | 1 | 0.46 | 0.46 |
| ANGPTL6 | 1.41 | 1 | 0.71 |
| CCL4L2 | 1.22 | 1.17 | 0.96 |
| ZNF629 | 1.09 | 1 | 0.92 |
| RAB42 | 1.32 | 0.74 | 0.56 |
| CACNG6 | 1.24 | 1.19 | 0.96 |
| PIK3CG | 0.79 | 0.62 | 0.78 |
| DVL1 | 1.35 | 0.81 | 0.6 |
| EPN3 | 0.92 | 0.68 | 0.74 |
| TYMP | 1.13 | 1.32 | 1.17 |
| NAP1L1 | 0.97 | 0.91 | 0.94 |
| RNF144A | 1.03 | 1 | 0.97 |
| FOXI1 | 1.01 | 0.77 | 0.76 |
| STYXL1 | 1.71 | 0.82 | 0.48 |
| ZSWIM3 | 1.01 | 0.76 | 0.75 |
| HEXB | 0.95 | 0.82 | 0.86 |
| CEP44 | 1.06 | 1 | 0.94 |
| YBX2 | 1.05 | 0.9 | 0.86 |
| BTG4 | 1.24 | 0.84 | 0.68 |
| CABP5 | 0.85 | 0.52 | 0.61 |
| PAFAH2 | 0.94 | 0.94 | 1 |
| CCDC185 | 0.94 | 0.64 | 0.68 |
| TMEM119 | 1.07 | 0.79 | 0.74 |
| GPR52 | 0.74 | 0.75 | 1.01 |
| FAM120B | 0.95 | 0.76 | 0.8 |
| AARS1 | 0.87 | 0.68 | 0.78 |
| GUCY2F | 0.8 | 0.78 | 0.97 |
| KRT72 | 0.98 | 0.78 | 0.8 |
| METTL21A | 0.99 | 0.87 | 0.88 |
| LCE4A | 0.87 | 0.54 | 0.62 |
| EHD2 | 1.3 | 1.04 | 0.8 |
| SPMIP10 | 0.8 | 0.64 | 0.8 |
| POP7 | 0.84 | 0.72 | 0.86 |
| MNS1 | 0.97 | 0.7 | 0.72 |
| ZNF91 | 1.09 | 0.76 | 0.7 |
| WDR41 | 0.89 | 1.03 | 1.16 |
| TMBIM4 | 0.77 | 0.62 | 0.8 |
| SUN2 | 0.76 | 0.58 | 0.76 |
| NUP133 | 1.05 | 0.6 | 0.57 |
| BBS2 | 0.87 | 0.66 | 0.76 |
| SHCBP1L | 0.98 | 0.78 | 0.8 |
| SPEF1 | 1.19 | 0.7 | 0.59 |
| TUSC1 | 1.08 | 1.04 | 0.96 |
| XPNPEP3 | 1.56 | 0.53 | 0.34 |
| TUBGCP6 | 0.93 | 0.91 | 0.98 |
| FOXE1 | 0.9 | 0.87 | 0.97 |
| ACAD9 | 0.82 | 0.64 | 0.78 |
| NPBWR2 | 0.84 | 0.7 | 0.83 |
| SRSF12 | 1.36 | 0.79 | 0.58 |
